Reference: PMC3419192
Results are given in words; binding and its absence hold for the method and conditions named. For part of these data: In cells and extracts the contact can be indirect. Some results given as binding are weak or reduced against the parent protein; the word gives no strength. For part of these data: Where a sequence is shown, tags or fusion partners need not be part of it.

Sequences of proteins named here, by UniProt entry; tags and fusion partners are left off.
UniProt P23804: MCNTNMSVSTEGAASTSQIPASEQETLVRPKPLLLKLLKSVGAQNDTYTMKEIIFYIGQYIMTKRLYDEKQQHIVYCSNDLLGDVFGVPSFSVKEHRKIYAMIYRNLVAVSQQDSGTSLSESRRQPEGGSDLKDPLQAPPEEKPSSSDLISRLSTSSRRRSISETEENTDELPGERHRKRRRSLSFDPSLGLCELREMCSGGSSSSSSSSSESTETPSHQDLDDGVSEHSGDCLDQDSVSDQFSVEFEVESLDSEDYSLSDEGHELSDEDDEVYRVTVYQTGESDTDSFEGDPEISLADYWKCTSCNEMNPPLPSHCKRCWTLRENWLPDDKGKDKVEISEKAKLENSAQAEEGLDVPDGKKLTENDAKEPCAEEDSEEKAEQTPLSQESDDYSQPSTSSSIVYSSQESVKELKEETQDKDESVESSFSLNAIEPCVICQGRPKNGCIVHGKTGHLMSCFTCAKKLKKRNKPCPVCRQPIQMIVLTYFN

T1: necdin, full-length, fused to the Gal4 DNA binding domain (pGBKT7-Necdin) (UniProt P25233)
T1 sequence: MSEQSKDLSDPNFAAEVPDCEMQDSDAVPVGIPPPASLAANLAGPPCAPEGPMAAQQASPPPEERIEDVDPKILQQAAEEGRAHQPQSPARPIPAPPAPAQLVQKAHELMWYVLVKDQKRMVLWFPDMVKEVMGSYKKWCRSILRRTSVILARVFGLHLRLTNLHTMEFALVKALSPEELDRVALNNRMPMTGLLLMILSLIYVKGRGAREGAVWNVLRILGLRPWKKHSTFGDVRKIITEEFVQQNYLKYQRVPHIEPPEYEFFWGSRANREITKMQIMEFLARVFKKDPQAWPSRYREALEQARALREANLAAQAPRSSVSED

T2: HA-CCAR1 (pSG5-HA-CCAR1) (UniProt Q8CH18)
T2 sequence: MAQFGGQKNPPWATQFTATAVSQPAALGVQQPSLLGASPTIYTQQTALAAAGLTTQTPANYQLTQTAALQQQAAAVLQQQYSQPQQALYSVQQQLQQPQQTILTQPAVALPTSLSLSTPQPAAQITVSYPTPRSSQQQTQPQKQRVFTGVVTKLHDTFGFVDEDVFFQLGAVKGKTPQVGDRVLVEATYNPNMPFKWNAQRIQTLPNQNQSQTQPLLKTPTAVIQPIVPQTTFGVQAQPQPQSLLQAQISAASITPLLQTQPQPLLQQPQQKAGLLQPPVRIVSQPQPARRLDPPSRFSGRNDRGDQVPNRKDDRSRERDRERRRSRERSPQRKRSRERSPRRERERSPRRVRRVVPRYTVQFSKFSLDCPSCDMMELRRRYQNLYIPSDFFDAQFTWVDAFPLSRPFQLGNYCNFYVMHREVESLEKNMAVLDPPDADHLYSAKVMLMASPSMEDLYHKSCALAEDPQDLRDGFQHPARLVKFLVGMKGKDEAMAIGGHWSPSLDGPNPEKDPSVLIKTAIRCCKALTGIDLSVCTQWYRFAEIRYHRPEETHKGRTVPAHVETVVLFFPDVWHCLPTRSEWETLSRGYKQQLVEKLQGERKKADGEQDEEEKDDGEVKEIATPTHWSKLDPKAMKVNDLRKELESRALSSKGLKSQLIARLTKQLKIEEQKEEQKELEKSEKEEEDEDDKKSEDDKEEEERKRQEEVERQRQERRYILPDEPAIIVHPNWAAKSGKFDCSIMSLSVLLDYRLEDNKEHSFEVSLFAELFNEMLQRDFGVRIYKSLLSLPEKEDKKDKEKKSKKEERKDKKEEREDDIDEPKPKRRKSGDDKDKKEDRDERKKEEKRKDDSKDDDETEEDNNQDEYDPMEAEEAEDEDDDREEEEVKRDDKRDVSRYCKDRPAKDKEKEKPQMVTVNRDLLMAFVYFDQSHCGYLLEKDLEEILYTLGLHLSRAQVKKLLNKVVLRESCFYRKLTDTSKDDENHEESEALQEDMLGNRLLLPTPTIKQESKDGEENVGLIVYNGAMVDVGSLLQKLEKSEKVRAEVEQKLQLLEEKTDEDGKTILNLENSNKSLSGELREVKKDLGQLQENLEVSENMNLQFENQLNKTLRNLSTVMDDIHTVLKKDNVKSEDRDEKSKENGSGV

T3: CCAR1/CARP1, endogenous in mouse myogenic cells and muscle (mouse (endogenous in C2C12, primary myoblasts and Tibialis anterior muscle)) (UniProt Q8CH18)
T3 sequence: T2 sequence

T4: FLAG-necdin, full-length (pCMV-FLAG-Necdin) (UniProt P25233)
T4 sequence: T1 sequence

T5: necdin, endogenous in primary myoblasts (mouse (endogenous in primary myoblasts of C57/Bl6 mice)) (UniProt P25233)
T5 sequence: T1 sequence

B1: CCAR1/CARP1 amino-acids 637-822, clone from the myoblast cDNA library fused to the Gal4 activation domain (pGAD-Rec CCAR1) (domain or fragment, UniProt Q8CH18 637-822)
chain: KVNDLRKELESRALSSKGLKSQLIARLTKQLKIEEQKEEQKELEKSEKEEEDEDDKKSEDDKEEEERKRQEEVERQRQERRYILPDEPAIIVHPNWAAKSGKFDCSIMSLSVLLDYRLEDNKEHSFEVSLFAELFNEMLQRDFGVRIYKSLLSLPEKEDKKDKEKKSKKEERKDKKEEREDDIDEP
B2: FLAG-necdin, full-length (pCMV-FLAG-Necdin) (protein, UniProt P25233 1-325)
chain: T1 sequence
B3: necdin in Tibialis anterior muscle of tgMlcNec mice (necdin gain of function) (protein, UniProt P25233 1-325)
chain: T1 sequence
B4: CCAR1/CARP1, endogenous in mouse myogenic cells and muscle (protein, UniProt Q8CH18 1-1146)
chain: T2 sequence
B5: necdin, endogenous in primary myoblasts (protein, UniProt P25233 1-325)
chain: T1 sequence
B6: HA-CCAR1 (pSG5-HA-CCAR1) (protein, UniProt Q8CH18 1-1146)
chain: T2 sequence

Legend:
[1] = molecular target: T1, necdin, full-length, fused to the Gal4 DNA binding domain (pGBKT7-Necdin); test: two-hybrid; mating: pGAD-Rec CCAR1 in AH109 mat-a, pGBKT7-Necdin in Y187 mat-alpha; diploids plated on SD/-Leu, -His, -Trp, -Ade
[2] = molecular target: T1, necdin, full-length, fused to the Gal4 DNA binding domain (pGBKT7-Necdin); test: two-hybrid; library screen in S. cerevisiae AH109: pGBKT7-necdin co-transformed with a cDNA library of primary myoblasts and linearized pGAD-Rec; selection on SD -Leu -Trp -His, then -Leu -His -Trp -Ade with X-Gal
HA-CCAR1 (pSG5-HA-CCAR1) = molecular target: T2, HA-CCAR1 (pSG5-HA-CCAR1); test: co-IP; Dynabeads Protein A with anti-CCAR1, anti-MDM2, anti-necdin or unspecific IgG; 1.5 mg extract of C2C12 transfected with pCMV-FLAG-Necdin, pCMV-Tag3b-Myc-MDM2 and pSG5-HA-CCAR1, or of Tibialis anterior of tgMlcNec mice, 5 h at 4 °C; western blot
[3] = molecular target: Myc-MDM2, full-length (pCMV-Tag3b-Myc-MDM2) (UniProt P23804); test: as above
[4] = molecular target: T3, CCAR1/CARP1, endogenous in mouse myogenic cells and muscle (mouse (endogenous in C2C12, primary myoblasts and Tibialis anterior muscle)); test: co-IP; protein A agarose beads with anti-CCAR1, anti-necdin or control IgG; 1 mg protein extract of transfected C2C12 or of primary myoblasts in RIPA buffer, overnight at 4 °C; wash buffer with 500 mM NaCl, 0.1% SDS, 1% NP-40; western blot
[5] = molecular target: MDM2, endogenous in Tibialis anterior muscle (mouse (endogenous in Tibialis anterior muscle)) (UniProt P23804); test: co-IP; Dynabeads Protein A with anti-CCAR1, anti-MDM2, anti-necdin or unspecific IgG; 1.5 mg extract of C2C12 transfected with pCMV-FLAG-Necdin, pCMV-Tag3b-Myc-MDM2 and pSG5-HA-CCAR1, or of Tibialis anterior of tgMlcNec mice, 5 h at 4 °C; western blot
[6] = molecular target: T3, CCAR1/CARP1, endogenous in mouse myogenic cells and muscle (mouse (endogenous in C2C12, primary myoblasts and Tibialis anterior muscle)); test: as above
[7] = molecular target: T4, FLAG-necdin, full-length (pCMV-FLAG-Necdin); test: co-IP; protein A agarose beads with anti-CCAR1, anti-necdin or control IgG; 1 mg protein extract of transfected C2C12 or of primary myoblasts in RIPA buffer, overnight at 4 °C; wash buffer with 500 mM NaCl, 0.1% SDS, 1% NP-40; western blot
[8] = molecular target: T5, necdin, endogenous in primary myoblasts (mouse (endogenous in primary myoblasts of C57/Bl6 mice)); test: as above

Row | Binder | binding [3] | binding [4] | binding [5] | other results
1 | B1 |  |  |  | binding [1]: binds; binding [2]: binds
2 | B2 | binds | binds |  | binding (HA-CCAR1 (pSG5-HA-CCAR1)): binds
3 | B3 |  |  | binds | binding [6]: binds
4 | B4 |  |  | binds | binding [7]: binds; binding [8]: binds
5 | B5 |  | binds |  | 
6 | B6 | binds |  |  | 
